In paper PMC6868236 one finds binding data, which are given here for 2 substances.

The chains behind the UniProt entries cited, without tags or fusion partners.
UniProt Q9HFE8: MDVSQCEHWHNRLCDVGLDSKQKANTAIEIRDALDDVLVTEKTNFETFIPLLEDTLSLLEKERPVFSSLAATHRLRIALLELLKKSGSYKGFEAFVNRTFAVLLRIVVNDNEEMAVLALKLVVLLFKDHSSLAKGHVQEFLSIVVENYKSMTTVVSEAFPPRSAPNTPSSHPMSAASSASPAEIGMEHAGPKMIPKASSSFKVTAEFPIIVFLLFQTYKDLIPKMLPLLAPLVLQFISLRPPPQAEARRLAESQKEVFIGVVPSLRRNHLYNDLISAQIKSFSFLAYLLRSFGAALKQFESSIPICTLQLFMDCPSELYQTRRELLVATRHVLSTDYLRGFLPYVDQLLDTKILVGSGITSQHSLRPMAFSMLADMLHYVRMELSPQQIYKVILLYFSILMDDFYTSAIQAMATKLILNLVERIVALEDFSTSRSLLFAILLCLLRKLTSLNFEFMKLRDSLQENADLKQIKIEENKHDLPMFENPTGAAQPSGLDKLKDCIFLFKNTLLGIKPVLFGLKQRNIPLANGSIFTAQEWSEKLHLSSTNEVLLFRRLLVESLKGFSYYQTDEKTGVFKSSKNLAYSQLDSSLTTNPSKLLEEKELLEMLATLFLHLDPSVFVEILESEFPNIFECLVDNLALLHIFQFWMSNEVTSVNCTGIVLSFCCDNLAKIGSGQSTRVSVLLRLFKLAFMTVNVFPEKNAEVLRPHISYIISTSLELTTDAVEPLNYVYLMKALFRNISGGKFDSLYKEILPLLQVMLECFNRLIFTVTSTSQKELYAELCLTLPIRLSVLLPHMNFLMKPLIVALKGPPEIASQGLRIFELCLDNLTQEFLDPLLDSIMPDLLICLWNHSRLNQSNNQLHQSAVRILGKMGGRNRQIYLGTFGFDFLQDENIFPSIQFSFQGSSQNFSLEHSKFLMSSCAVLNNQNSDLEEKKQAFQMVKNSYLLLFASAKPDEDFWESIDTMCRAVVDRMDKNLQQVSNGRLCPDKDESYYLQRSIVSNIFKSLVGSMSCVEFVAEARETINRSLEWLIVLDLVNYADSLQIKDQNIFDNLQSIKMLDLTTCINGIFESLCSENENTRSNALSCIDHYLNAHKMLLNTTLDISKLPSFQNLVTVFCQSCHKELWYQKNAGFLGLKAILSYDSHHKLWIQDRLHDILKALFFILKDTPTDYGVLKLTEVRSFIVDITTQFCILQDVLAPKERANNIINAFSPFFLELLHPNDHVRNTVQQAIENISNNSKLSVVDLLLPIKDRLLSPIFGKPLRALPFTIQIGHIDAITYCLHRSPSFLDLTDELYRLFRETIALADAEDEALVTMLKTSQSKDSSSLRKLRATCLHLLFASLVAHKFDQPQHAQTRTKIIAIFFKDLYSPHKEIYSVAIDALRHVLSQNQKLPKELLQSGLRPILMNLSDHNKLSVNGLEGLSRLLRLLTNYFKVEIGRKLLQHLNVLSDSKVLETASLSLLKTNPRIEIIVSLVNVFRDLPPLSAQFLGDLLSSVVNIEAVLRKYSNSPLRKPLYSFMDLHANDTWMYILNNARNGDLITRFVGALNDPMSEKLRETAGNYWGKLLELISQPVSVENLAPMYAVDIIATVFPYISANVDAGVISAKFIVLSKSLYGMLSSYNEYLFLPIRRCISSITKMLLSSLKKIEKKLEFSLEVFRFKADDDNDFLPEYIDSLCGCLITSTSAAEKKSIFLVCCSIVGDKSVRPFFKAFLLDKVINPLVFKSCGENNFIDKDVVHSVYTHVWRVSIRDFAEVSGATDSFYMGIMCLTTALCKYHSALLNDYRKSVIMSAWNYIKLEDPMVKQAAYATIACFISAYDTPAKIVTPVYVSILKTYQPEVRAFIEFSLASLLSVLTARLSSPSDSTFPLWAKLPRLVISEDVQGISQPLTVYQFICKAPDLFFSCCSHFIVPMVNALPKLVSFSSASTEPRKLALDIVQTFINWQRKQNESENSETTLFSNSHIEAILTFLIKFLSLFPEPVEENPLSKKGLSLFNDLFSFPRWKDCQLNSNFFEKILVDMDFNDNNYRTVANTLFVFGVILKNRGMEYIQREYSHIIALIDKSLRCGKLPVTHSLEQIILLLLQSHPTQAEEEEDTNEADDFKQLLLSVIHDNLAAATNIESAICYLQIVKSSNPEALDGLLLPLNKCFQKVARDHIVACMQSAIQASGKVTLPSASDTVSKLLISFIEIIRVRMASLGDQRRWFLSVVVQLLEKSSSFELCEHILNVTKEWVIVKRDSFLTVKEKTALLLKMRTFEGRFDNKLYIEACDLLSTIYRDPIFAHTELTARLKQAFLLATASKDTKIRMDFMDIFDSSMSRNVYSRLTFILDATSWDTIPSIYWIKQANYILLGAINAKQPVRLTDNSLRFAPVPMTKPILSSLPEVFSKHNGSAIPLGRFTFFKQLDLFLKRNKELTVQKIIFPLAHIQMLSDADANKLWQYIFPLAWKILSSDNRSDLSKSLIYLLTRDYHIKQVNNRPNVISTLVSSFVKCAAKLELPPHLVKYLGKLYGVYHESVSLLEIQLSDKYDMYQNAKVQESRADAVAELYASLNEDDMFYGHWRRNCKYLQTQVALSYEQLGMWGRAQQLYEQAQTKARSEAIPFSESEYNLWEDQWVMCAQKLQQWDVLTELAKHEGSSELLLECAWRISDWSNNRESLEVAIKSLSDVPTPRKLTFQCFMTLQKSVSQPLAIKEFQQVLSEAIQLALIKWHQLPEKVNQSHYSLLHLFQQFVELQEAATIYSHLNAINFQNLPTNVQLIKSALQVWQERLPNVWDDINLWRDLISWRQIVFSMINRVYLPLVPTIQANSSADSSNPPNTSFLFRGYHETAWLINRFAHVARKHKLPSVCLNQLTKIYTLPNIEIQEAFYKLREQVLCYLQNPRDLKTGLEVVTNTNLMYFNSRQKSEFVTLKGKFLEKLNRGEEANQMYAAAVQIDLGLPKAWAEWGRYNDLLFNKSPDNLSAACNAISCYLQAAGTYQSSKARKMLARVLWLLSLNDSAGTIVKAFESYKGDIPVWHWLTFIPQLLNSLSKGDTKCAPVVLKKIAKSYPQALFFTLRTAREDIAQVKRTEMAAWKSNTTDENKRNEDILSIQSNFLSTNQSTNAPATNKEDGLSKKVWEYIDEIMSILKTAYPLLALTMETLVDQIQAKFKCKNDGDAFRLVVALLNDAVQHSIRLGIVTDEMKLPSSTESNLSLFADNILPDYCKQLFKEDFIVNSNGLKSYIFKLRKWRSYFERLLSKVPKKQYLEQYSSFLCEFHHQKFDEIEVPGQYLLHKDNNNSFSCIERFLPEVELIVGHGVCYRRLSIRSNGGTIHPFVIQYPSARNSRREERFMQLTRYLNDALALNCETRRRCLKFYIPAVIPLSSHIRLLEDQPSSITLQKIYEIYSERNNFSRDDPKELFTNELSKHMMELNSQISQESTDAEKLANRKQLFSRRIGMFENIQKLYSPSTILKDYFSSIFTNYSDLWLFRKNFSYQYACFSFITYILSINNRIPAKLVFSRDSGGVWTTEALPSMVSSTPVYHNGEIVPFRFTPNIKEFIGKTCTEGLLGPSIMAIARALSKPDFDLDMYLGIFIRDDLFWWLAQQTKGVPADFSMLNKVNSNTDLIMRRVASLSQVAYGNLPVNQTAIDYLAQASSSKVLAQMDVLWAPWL

These are yes or no findings as the source states them, for the method shown. Binding seen in cells or lysates may run through a third protein. A yes stands for co-enrichment or nearness to the bait. Other partners may have been found. For some of these results: No binding means not detected with the bait. For some of these results: Sequences can lack the tags named with a protein.

The target of experiment [1] is T1, Spt20 (S. cerevisiae, wild type) (S. cerevisiae) (UniProt P50875).
T1 sequence: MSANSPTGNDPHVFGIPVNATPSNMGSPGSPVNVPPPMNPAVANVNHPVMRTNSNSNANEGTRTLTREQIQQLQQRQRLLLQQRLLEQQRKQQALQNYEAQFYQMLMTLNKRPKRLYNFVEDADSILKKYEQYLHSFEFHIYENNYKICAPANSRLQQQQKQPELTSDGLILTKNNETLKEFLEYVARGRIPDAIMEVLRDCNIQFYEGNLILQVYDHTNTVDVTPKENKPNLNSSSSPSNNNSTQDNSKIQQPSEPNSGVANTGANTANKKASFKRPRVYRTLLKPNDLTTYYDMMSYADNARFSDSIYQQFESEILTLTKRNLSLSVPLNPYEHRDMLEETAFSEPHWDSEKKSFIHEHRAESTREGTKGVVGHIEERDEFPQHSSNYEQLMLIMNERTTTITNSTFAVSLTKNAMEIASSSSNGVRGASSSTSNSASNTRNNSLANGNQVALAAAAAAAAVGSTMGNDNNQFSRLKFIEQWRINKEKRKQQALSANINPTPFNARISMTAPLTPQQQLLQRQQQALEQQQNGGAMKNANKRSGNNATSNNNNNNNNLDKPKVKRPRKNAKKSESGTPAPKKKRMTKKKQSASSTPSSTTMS
The experiment can be described thus: affinity purification with mass spectrometry; tandem affinity purification of S. cerevisiae SAGA by HA-Spt7-TAP from WT and spt20 truncation mutants, silver staining and LFQ LC-MS/MS (Tra1 normalised to Spt7).

Experiment [2] has as its target T2, Spt20-492 (S. cerevisiae Spt20 truncation, V5-tagged) (S. cerevisiae) (UniProt P50875).
T2 sequence: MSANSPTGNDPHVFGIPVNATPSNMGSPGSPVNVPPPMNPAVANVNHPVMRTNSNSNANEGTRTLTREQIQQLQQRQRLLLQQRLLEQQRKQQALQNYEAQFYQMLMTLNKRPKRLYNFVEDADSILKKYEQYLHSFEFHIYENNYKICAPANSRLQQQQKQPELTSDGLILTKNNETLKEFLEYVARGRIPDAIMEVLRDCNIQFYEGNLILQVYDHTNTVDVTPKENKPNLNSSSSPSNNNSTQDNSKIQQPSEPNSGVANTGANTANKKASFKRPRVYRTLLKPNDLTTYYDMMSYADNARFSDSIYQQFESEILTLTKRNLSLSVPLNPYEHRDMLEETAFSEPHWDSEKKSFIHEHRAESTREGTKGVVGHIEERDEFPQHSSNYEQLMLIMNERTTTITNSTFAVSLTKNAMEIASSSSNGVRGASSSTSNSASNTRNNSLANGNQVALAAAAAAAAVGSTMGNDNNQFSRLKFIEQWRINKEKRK
The description is as above.

The target in experiment [3] is T3, Tti2-TAP (S. pombe) (S. pombe) (UniProt O94729).
T3 sequence: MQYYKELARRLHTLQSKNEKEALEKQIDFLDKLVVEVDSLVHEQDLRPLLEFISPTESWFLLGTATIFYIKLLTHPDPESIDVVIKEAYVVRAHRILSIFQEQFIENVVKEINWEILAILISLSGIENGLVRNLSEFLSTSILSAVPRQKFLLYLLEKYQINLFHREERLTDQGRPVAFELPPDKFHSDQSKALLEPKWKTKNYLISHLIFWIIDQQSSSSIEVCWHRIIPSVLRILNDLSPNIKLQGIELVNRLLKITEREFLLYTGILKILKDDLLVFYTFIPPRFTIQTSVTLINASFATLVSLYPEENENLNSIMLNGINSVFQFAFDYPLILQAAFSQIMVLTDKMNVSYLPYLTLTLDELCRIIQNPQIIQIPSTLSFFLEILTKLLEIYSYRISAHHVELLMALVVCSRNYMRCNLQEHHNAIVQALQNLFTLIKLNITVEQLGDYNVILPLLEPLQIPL
The experiment can be described thus: affinity purification with mass spectrometry; tandem affinity purification of Tti2 from S. pombe extracts, LC-MS/MS with label-free quantification, TAP against no-TAP samples.

Experiment [4] concerns the target T4, Spt20 (S. pombe) (S. pombe) (UniProt O14174).
T4 sequence: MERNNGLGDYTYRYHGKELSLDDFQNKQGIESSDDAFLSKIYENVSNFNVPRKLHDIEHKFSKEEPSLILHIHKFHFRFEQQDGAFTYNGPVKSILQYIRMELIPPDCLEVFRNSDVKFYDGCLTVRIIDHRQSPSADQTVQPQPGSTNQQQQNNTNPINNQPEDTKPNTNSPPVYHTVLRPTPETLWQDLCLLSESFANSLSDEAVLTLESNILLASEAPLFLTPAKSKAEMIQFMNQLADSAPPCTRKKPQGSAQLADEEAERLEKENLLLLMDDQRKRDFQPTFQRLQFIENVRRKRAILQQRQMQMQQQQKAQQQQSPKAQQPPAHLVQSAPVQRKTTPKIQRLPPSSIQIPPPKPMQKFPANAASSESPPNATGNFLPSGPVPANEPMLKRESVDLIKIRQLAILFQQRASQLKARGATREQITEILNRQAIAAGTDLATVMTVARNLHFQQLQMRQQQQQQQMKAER
The experiment can be described thus: affinity purification with mass spectrometry; tandem affinity purification of SAGA by Spt7-TAP from S. pombe extracts (WEB or CLB buffer), EGTA eluates, silver staining and LFQ LC-MS/MS (prey to bait ratio); wild-type, tra1 hybrid and spt20 mutant strains; also tti2-CKO with DMSO or β-estradiol, RI-tra1, tel2-AID and hsp90 mutant strains.

Experiment [5] addresses T5, Spt20-290 (S. pombe Spt20 truncation, residues 291-474 deleted) (S. pombe) (UniProt O14174).
T5 sequence: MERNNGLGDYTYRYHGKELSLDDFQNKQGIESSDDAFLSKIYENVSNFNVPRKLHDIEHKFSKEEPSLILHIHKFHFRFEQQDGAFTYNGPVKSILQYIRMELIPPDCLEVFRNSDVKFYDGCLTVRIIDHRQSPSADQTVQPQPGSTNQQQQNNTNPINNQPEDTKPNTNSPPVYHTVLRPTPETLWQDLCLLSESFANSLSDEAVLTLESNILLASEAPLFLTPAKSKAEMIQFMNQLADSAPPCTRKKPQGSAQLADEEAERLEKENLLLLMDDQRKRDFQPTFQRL
The description is as above.

Experiment [6] concerns the target T6, Spt20-300 (S. pombe Spt20 truncation, residues 301-474 deleted) (S. pombe) (UniProt O14174).
T6 sequence: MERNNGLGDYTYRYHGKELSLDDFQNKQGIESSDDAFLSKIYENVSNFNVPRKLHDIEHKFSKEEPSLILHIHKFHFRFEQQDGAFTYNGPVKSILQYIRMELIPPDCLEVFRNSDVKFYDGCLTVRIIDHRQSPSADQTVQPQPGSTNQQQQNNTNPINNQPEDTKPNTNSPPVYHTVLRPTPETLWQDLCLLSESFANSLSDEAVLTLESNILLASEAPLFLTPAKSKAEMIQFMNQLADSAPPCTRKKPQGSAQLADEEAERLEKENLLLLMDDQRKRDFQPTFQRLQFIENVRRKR
The experiment is described as above.

Experiment [7] concerns the target Spt20-RRKR (S. pombe Spt20 with the four RRKR residues of the HIT region mutated) (S. pombe) (UniProt O14174). Described as above.

With “Tra1 (S. cerevisiae) (from UniProt P38811 1-3744)”, the binding result in experiment [1] and in experiment [2] was “binds” each time.
As to “Tra1 (S. pombe) (from UniProt Q9HFE8 1-3661)”, the binding entry in experiment [3] is on record as “binds”; in experiment [4] it was “binds”; in experiment [5], “no binding (tested: ND: not detected or <1% of WT)”; in experiment [6] it was “binds”; in experiment [7] it was “binds”.
